Laboratory results reported in PubChem BioAssay AID2685 (National Center for Advancing Translational Sciences (NCATS), 2010).
This is one part of the list. Shown are side measurements of this screen, not its main read-out; they come without a call. Compounds called inactive in the main read-out are mostly missing here. Words in brackets tell the shape of the fitted curve; partial curves, single points and poor fits give uncertain potencies.

Test: qHTS Assay for Lipid Storage Modulators in Drosophila S3 Cells;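 for cell number change: cells counted by Cell Tracker Red CMTPX staining in the red channel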
Conditions: BODIPY lipid droplet fluorescence, 18-24 h; for cell number change: measured here: cell count max response, cells fed with added oleic acid
In short: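 Drosophila S3 cells got compounds at several concentrations plus oleic acid (400 uM solution). Laser-scanning cytometry with 488 nm excitation read lipid droplets at 500-530 nm and cells at 575-640 nm. Percent activity was relative to 20 uM Triacsin C.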

[1] = measured here: lipid fluorescence (Fed channel) AC50, cells fed with added oleic acid
[2] = measured here: cell number channel AC50, cells fed with added oleic acid

Row | SMILES | cell number change [%] | AC50 [1] | AC50 [2]
1 | COC(=O)C1=CN(CC2CCCO2)C=C(C(=O)OC)C1c1cc(OC)c(OC)c(OC)c1 (stereo unspecified) | -18.7 |  | 
2 | CCOC(=O)C1CCCN(C(=O)c2cn(CC)c3ccc(S(=O)(=O)N4CCCC4)cc3c2=O)C1 (stereo unspecified) | -26.8 | 0.326 µM [falling, single point] | 
3 | O=C(NCc1ccc(F)cc1)C1CCN(S(=O)(=O)N2CCCCC2)CC1 | -15.1 | 29.1 µM [falling, single point] | 
4 | Cc1ccc(S(=O)(=O)CCSc2nc(C)cc(C(F)(F)F)c2C#N)cc1 |  | 23.1 µM [falling, partial curve] | 
5 | Oc1ccc(-c2onc3ccc(Cl)cc23)cc1 | -11.1 | 0.00461 µM [rising, full curve, poor fit] | 
6 | O=C(O)c1cccc(NCc2ccncc2)c1 | -82.2 | 29.1 µM [falling, single point] | 29.1 µM [falling, single point]
7 | Cc1cc(C)c(S(=O)(=O)NCc2cccnc2)c(C)c1 | -21.6 |  | 
8 | CC(=O)N(c1cccc(C(F)(F)F)c1)c1nc(/C=C/C(=O)O)cs1 | -2.57 | 3.66 µM [falling, single point] | 
9 | Cc1nnnn1/C(=C\c1ccccc1)C(=O)OCC(=O)Nc1ccc(Cl)cc1F | -59.6 |  | 9.2 µM [falling, partial curve]
10 | CCOc1ccccc1NC(=O)Cn1c(=O)n(CCC(=O)NC2CCCC2)c(=O)c2ccccc21 |  | 0.058 µM [rising, full curve, poor fit] | 
11 | CC(C(=O)Nc1ccc2c(c1)OCCO2)N1CCN(C(=O)c2ccco2)CC1 (stereo unspecified) | -6.08 | 32.6 µM [rising, single point] | 
12 | CCSc1nnc2c(n1)[nH]c1c(C)cccc12 |  | 16.4 µM [falling, partial curve, poor fit] | 
13 | CCOC(=O)c1ccc[n+](CC(=O)Nc2cc(C(F)(F)F)ccc2Cl)c1 | -99.2 | 23.1 µM [falling, partial curve] | 18.4 µM [falling, single point]
14 | COc1ccc(-n2nc(C(=O)NCC(=O)NCCCN3CCOCC3)c3ccccc3c2=O)cc1Cl | 35.9 |  | 0.259 µM [rising, full curve, poor fit]
15 | Cc1ccc(C2C(=O)N(C3CCCC3)CC(=O)N2C2CCCCC2)cc1 (stereo unspecified) | -12.9 | 18.4 µM [rising, single point] | 
16 | Cc1ccc(S(=O)(=O)N2CCN(C(=O)COC(=O)CCOc3ccc(C(C)(C)C)cc3)CC2)cc1 | 56.6 |  | 32.6 µM [rising, partial curve, poor fit]
17 | CC(C)(C)SCCNC(=O)Nc1ccccc1 | 63.2 | 0.731 µM [falling, single point] | 16.4 µM [rising, single point]
18 | Cc1cccc(OCC(=O)NCC(=O)N=Nc2c(O)[nH]c3ccc([N+](=O)[O-])cc23)c1 | 0.901 | 29.1 µM [falling, single point] | 
19 | O=C(O)c1cccnc1SCc1cn2cc(Cl)ccc2n1 | -16.6 | 1.3 µM [falling, full curve] | 

Quoted at random: two compounds from above.
Row | SMILES | cell number change [%] | AC50 [1] | AC50 [2]
6 | O=C(O)c1cccc(NCc2ccncc2)c1 | -82.2 | 29.1 µM [falling, single point] | 29.1 µM [falling, single point]
4 | Cc1ccc(S(=O)(=O)CCSc2nc(C)cc(C(F)(F)F)c2C#N)cc1 |  | 23.1 µM [falling, partial curve] | 

Going on with the list.

Row | SMILES | cell number change [%] | AC50 [1] | AC50 [2]
20 | C=CCn1c(SCC(=O)NCC2CCCO2)nc2scc(-c3ccco3)c2c1=O (stereo unspecified) |  |  | 4.61 µM [rising, partial curve, poor fit]
21 | CCOc1cc(NC(=S)Nc2cccc(OC)c2)c(OCC)cc1NC(=O)c1ccc(C)cc1 | 10.6 | 18.4 µM [rising, single point] | 
22 | CC(C)CN1C(=O)/C(=C(/C#N)C(=O)NC2CCCCC2)c2ccccc21 | 1.34 | 3.26 µM [rising, single point] | 
23 | O=C(c1ccco1)N1CCN(C(=O)c2cc3cc([N+](=O)[O-])ccc3oc2=O)CC1 | 65.5 |  | 
24 | Cc1ccc(S(=O)(=O)NC2(C(F)(F)F)C(=O)Nc3c2c(=O)[nH]c(=O)n3-c2ccccc2)cc1 (stereo unspecified) | 7.42 | 18.4 µM [rising, single point] | 
25 | NS(=O)(=O)c1ccc(N/N=C/C=C/c2ccccc2[N+](=O)[O-])cc1 | 11.3 |  | 
26 | COc1ccc(/C=N/NC(=O)c2ccc(N(C)S(=O)(=O)c3ccccc3)cc2)cc1OC | 18.6 | 1.64 µM [rising, partial curve] | 
27 | COc1ccc(CC(=O)NNC(=O)c2cccs2)cc1OC | -48 | 29.1 µM [falling, single point] | 29.1 µM [falling, single point]
28 | Cc1nc(CNS(=O)(=O)c2ccc3c(c2)OCCO3)cs1 | -45.7 | 0.517 µM [falling, full curve] | 0.58 µM [falling, full curve]
29 | CN(C)c1ccc(/C=C2\NC(=S)N(Cc3ccccc3)C2=O)cc1 | -11.7 | 29.1 µM [falling, single point] | 
30 | Cc1ccc(NC(=O)C(C)OC(=O)Cc2c[nH]c3ccccc23)cc1 (stereo unspecified) | 41.7 | 3.66 µM [rising, full curve] | 2.91 µM [rising, full curve]
31 | CCOC(=O)c1ccc(NC(=O)N2C3CCCC2CC(NC(C)=O)C3)cc1 (stereo unspecified) | 2.84 | 0.517 µM [rising, full curve, poor fit] | 
32 | NC1=NC(=O)CC(C(=O)NCCc2ccccc2)S1 (stereo unspecified) | 14.5 |  | 
33 | CCN(CC(=O)Nc1c(F)cccc1F)C(=O)c1ccc(C(F)(F)F)cc1 | 36.9 |  | 8.2 µM [rising, partial curve, poor fit]
34 | O=C1/C(=C/c2cccc(Br)c2)SC(=S)N1/N=C/c1cc([N+](=O)[O-])ccc1O | -4.47 |  | 
35 | Cc1ccc(-c2nn(C)c(=O)c3ccccc23)cc1CNC(=O)c1ccco1 | -20.7 | 25.9 µM [rising, single point] | 
36 | Cc1cccc(NC(=O)c2ccc(S(=O)(=O)NCc3ccco3)cc2)n1 | -13.9 | 1.46 µM [rising, partial curve] | 
37 | CCOC(=O)C1CCN(C(=O)COc2ccc(S(=O)(=O)N3CCOCC3)cc2)CC1 | -12 |  | 
38 | C=C(C)COc1ccc(-c2nc(N)ncc2-c2ccc(OC)c(OC)c2)c(O)c1 | -4.26 | 0.13 µM [rising, full curve, poor fit] | 
